Data source: PubChem BioAssay AID652259 (Drosophila RNAi Screening Center, 2013)
The deposit covers about 22,000 reagents; below is a random part of those that have a named target and a result. Over the whole deposit, 233 (1.1%) were called active. 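Light values are raw, unnormalised plate reads; the ratio scores behind the reporter calls were not deposited.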 Entries without a mark were called inactive. A plus sign joins genes that one reagent is predicted to hit. Not stated in the record: the amount of reagent, the time to read-out, the dose of the treatment.

Purpose: 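Knock-downs that push a Wingless-driven reporter up or down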 (primary screen)
Cell system: Drosophila clone 8 imaginal disc epithelial cells
Reagents: long dsRNA against Drosophila genes
Conditions: pathway stimulated by co-transfected Wingless expression plasmid
Measured: 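Dual luciferase reads per well after Wingless plasmid stimulation: reporter firefly light and Renilla control light; activity is firefly divided by Renilla, a ratio not deposited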
Reading the numbers: firefly reporter light: higher = more Wg reporter light, before normalisation; Renilla control light: higher = more transfected or surviving cells
Call rule: 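a knock-down is a candidate when at least two out of four statistical tests show it departing from its plate mean; one test alone signals a weak candidate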
Meaning of the calls: active = candidate regulator (raises or lowers reporter); inactive = not a candidate

gene knocked down | dsRNA | reporter change call, replicate 1 | firefly reporter light, replicate 1 | firefly reporter light, replicate 2 | Renilla control light, replicate 1 | Renilla control light, replicate 2
heix (GeneID 34961) | DRSC03542 | – | 3619 | – | 1901 | –
Rab21 (GeneID 3355163) | DRSC20968 | – | 17653 | – | 10422 | –
CG13359 (GeneID 31028) | DRSC18539 | – | 19319 | – | 12188 | –
CG9582 (GeneID 34230) | DRSC03267 | – | 1540 | 4244 | 688 | 2449
wun2 (GeneID 53558) | DRSC07566 | – | 3425 | 11660 | 1186 | 4424
CG14669 (GeneID 40652) | DRSC12065 | – | 2336 | – | 444 | –
CG14669 (GeneID 40652) | DRSC12067 | – | 2551 | – | 1365 | –
CG14669 (GeneID 40652) | DRSC12068 | – | 4134 | – | 2418 | –
CG14669 (GeneID 40652) | DRSC12255 | – | 16720 | – | 3696 | –
Ric (GeneID 36776) | DRSC07532 | Wg reporter activity raised | 6192 | – | 1911 | –
Osi10b (GeneID 40764) | DRSC12279 | – | 7665 | – | 1457 | –
CG11413 + CG4622 | DRSC04109 | – | 3569 | 6583 | 836 | 2241
CG13066 (GeneID 50270) | DRSC09949 | – | 7808 | – | 3443 | –
Dsor1 (GeneID 31872) | DRSC18462 | – | 3725 | 5815 | 728 | 1408
CG17732 (GeneID 40182) | DRSC10283 | – | 19419 | – | 6087 | –
CG3062 (GeneID 31396) | DRSC18572 | – | 21170 | – | 9429 | –
CG3335 (GeneID 39119) | DRSC10358 | – | 6176 | – | 2763 | –

Limited to “Renilla control light, replicate 1”, for 6 of the entries above:
Ric (GeneID 36776) [DRSC07532]	1911
Osi10b (GeneID 40764) [DRSC12279]	1457
CG11413 + CG4622 [DRSC04109]	836
CG13066 (GeneID 50270) [DRSC09949]	3443
Dsor1 (GeneID 31872) [DRSC18462]	728
CG17732 (GeneID 40182) [DRSC10283]	6087

Continued:
gene knocked down | dsRNA | reporter change call, replicate 1 | firefly reporter light, replicate 1 | firefly reporter light, replicate 2 | Renilla control light, replicate 1 | Renilla control light, replicate 2
Ctl2 (GeneID 43440) | DRSC14423 | – | 2739 | 8091 | 1053 | 2685
Gr77a (GeneID 117476) | DRSC11446 | – | 2949 | – | 1280 | –
CG18233 (GeneID 40025) | DRSC10308 | – | 4920 | – | 2006 | –
CG17544 (GeneID 35213) | DRSC02624 | – | 6932 | – | 2568 | –
CG11714 (GeneID 3772566) | DRSC09857 | – | 4674 | – | 2059 | –
CG7378 (GeneID 32888) | DRSC20041 | – | 12440 | – | 7168 | –
abd-A (GeneID 42037) | DRSC13179 | – | 2356 | – | 777 | –
abd-A (GeneID 42037) | DRSC16897 | – | 8662 | – | 450 | –
CG13744 (GeneID 35906) | DRSC06415 | – | 3216 | 7716 | 1385 | 3312
DIP-beta (GeneID 33125) | DRSC20489 | – | 15796 | – | 9184 | –
DIP-beta (GeneID 33125) | DRSC20490 | – | 26172 | – | 15264 | –
DIP-beta (GeneID 33125) | DRSC20505 | – | 38966 | – | 1927 | –
CG6071 (GeneID 39308) | DRSC10579 | – | 5788 | – | 2070 | –
rogdi (GeneID 39917) | DRSC10906 | – | 2343 | – | 1221 | –
bun (GeneID 34665) | DRSC01253 | – | 25418 | – | 10945 | –
bun (GeneID 34665) | DRSC01255 | – | 25208 | – | 10008 | –
bun (GeneID 34665) | DRSC03500 | Wg reporter activity raised (active) | 13148 | – | 1169 | –
CG11696 (GeneID 32104) | DRSC19417 | – | 2909 | 5371 | 710 | 2352
Rab30 (GeneID 33988) | DRSC03137 | – | 2704 | 8372 | 1021 | 3373
Ugalt (GeneID 31255) | DRSC18467 | – | 18028 | – | 11451 | –
CG10646 (GeneID 39426) | DRSC09764 | – | 4836 | – | 1309 | –
CG15296 (GeneID 31986) | DRSC17983 | – | 18224 | – | 6986 | –
Exn (GeneID 39900) | DRSC09673 | – | 3451 | – | 1735 | –
Exn (GeneID 39900) | DRSC10077 | – | 8928 | – | 2969 | –
Brr2 (GeneID 39737) | DRSC10559 | – | 4247 | – | 1065 | –
CG8777 (GeneID 35921) | DRSC07263 | – | 7627 | – | 2256 | –
CG13039 (GeneID 39805) | DRSC09920 | – | 7490 | – | 3395 | –
SMSr (GeneID 38823) | DRSC10998 | – | 8233 | – | 3377 | –
SMSr (GeneID 38823) | DRSC10999 | – | 1708 | 6235 | 1216 | 2822
Acsx1R (GeneID 42352) | DRSC14339 | – | 19197 | – | 3840 | –
TfIIB (GeneID 34430) | DRSC03454 | – | 3110 | 8533 | 694 | 1568
MagR (GeneID 32513) | DRSC20092 | – | 19520 | – | 10092 | –
